Consider five molecules from article PMC3415447.

Chains of the proteins cited; added tags and fusions are not shown.
UniProt P40562: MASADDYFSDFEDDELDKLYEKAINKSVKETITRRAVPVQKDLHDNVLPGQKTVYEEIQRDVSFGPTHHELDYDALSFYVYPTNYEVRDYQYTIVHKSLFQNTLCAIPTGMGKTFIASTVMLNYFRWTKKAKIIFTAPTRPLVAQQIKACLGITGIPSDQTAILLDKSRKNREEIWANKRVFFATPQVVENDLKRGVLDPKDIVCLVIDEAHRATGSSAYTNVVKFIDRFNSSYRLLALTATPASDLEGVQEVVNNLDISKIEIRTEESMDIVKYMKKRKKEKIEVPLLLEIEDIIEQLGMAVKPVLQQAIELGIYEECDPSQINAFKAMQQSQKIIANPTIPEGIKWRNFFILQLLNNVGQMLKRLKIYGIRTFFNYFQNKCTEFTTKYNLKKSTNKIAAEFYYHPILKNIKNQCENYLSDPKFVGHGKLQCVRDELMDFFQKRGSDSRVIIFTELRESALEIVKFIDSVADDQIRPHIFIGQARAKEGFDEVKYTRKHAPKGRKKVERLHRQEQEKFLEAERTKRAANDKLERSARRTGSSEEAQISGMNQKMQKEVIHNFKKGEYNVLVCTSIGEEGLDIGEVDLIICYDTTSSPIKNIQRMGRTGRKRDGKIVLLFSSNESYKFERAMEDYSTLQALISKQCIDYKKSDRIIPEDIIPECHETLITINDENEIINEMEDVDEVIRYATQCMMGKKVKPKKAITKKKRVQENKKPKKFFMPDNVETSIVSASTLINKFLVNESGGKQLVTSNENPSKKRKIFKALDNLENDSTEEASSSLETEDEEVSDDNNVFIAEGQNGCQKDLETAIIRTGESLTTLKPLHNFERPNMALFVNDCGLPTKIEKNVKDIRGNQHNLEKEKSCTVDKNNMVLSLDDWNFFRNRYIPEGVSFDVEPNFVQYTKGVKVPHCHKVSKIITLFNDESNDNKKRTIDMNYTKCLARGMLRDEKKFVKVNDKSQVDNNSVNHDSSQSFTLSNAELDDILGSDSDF

These are yes or no findings as the source states them, for the method shown. In cells and extracts the contact can be indirect. Here binding means that the protein was enriched with, or labelled near, the bait; the list need not be complete. Where a sequence is shown, tags or fusion partners need not be part of it.

To fix the notation:
T1: FLAG-tagged Mgm101 (budding yeast) (UniProt P32787)
T1 sequence: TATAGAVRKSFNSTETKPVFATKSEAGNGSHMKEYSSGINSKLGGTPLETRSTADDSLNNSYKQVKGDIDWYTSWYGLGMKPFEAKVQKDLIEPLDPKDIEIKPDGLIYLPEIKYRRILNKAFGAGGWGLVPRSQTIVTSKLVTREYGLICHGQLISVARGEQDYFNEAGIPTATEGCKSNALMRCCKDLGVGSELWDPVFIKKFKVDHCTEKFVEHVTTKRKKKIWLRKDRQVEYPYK

B1: Msh2 (protein, UniProt P25847 1-964)
chain: MSSTRPELKFSDVSEERNFYKKYTGLPKKPLKTIRLVDKGDYYTVIGSDAIFVADSVYHTQSVLKNCQLDPVTAKNFHEPTKYVTVSLQVLATLLKLCLLDLGYKVEIYDKGWKLIKSASPGNIEQVNELMNMNIDSSIIIASLKVQWNSQDGNCIIGVAFIDTTAYKVGMLDIVDNEVYSNLESFLIQLGVKECLVQDLTSNSNSNAEMQKVINVIDRCGCVVTLLKNSEFSEKDVELDLTKLLGDDLALSLPQKYSKLSMGACNALIGYLQLLSEQDQVGKYELVEHKLKEFMKLDASAIKALNLFPQGPQNPFGSNNLAVSGFTSAGNSGKVTSLFQLLNHCKTNAGVRLLNEWLKQPLTNIDEINKRHDLVDYLIDQIELRQMLTSEYLPMIPDIRRLTKKLNKRGNLEDVLKIYQFSKRIPEIVQVFTSFLEDDSPTEPVNELVRSVWLAPLSHHVEPLSKFEEMVETTVDLDAYEENNEFMIKVEFNEELGKIRSKLDTLRDEIHSIHLDSAEDLGFDPDKKLKLENHHLHGWCMRLTRNDAKELRKHKKYIELSTVKAGIFFSTKQLKSIANETNILQKEYDKQQSALVREIINITLTYTPVFEKLSLVLAHLDVIASFAHTSSYAPIPYIRPKLHPMDSERRTHLISSRHPVLEMQDDISFISNDVTLESGKGDFLIITGPNMGGKSTYIRQVGVISLMAQIGCFVPCEEAEIAIVDAILCRVGAGDSQLKGVSTFMVEILETASILKNASKNSLIIVDELGRGTSTYDGFGLAWAIAEHIASKIGCFALFATHFHELTELSEKLPNVKNMHVVAHIEKNLKEQKHDDEDITLLYKVEPGISDQSFGIHVAEVVQFPEKIVKMAKRKANELDDLKTNNEDLKKAKLSLQEVNEGNIRLKALLKEWIRKVKEEGLHDPSKITEEASQHKIQELLRAIANEPEKENDNYLKYIKALLL
B2: Fkh1 (protein, UniProt P40466 1-484)
chain: MSVTSREQKFSGKYSSYTAQDRQGLVNAVTCVLSSSSDPVAVSSDYSNSLSIAREVNAYAKIAGCDWTYYVQKLEVTIGRNTDSLNLNAVPGTVVKKNIDIDLGPAKIVSRKHAAIRFNLESGSWELQIFGRNGAKVNFRRIPTGPDSPPTVLQSGCIIDIGGVQMIFILPEQETIISDYCLNHLMPKLLSTYGTNGNNNPLLRNIIEGSTYLREQRLQEEARLQQLDHLHTPLSSSSDVNPIGDPHGDTIMMEEDEEDENYTRGGIRPNTYTSSSNNAVTNGNVPHIENPSDLSLDENRYIKPPQSYASMITQAILSTPEGSISLADIYKFISDNYAFYRFSQMAWQNSVRHNLSLNKAFEKVPKRAGQQGKGMNWKISDEVRRDFLNKWNAGKLSKIRRGASVTRQLQLHMSKFGEIPAPESSSIDPRGIKAQKVKKSLQATSSILGESAPQLQRTQLTGQISTTTSMDVTTNANVNNSSLS
B3: Lsm7 (protein, UniProt P53905 1-115)
chain: MHQQHSKSENKPQQQRKKFEGPKREAILDLAKYKDSKIRVKLMGGKLVIGVLKGYDQLMNLVLDDTVEYMSNPDDENNTELISKNARKLGLTVIRGTILVSLSSAEGSDVLYMQK
B4: Msh6 (protein, UniProt Q03834 1-1242)
chain: MAPATPKTSKTAHFENGSTSSQKKMKQSSLLSFFSKQVPSGTPSKKVQKPTPATLENTATDKITKNPQGGKTGKLFVDVDEDNDLTIAEETVSTVRSDIMHSQEPQSDTMLNSNTTEPKSTTTDEDLSSSQSRRNHKRRVNYAESDDDDSDTTFTAKRKKGKVVDSESDEDEYLPDKNDGDEDDDIADDKEDIKGELAEDSGDDDDLISLAETTSKKKFSYNTSHSSSPFTRNISRDNSKKKSRPNQAPSRSYNPSHSQPSATSKSSKFNKQNEERYQWLVDERDAQRRPKSDPEYDPRTLYIPSSAWNKFTPFEKQYWEIKSKMWDCIVFFKKGKFFELYEKDALLANALFDLKIAGGGRANMQLAGIPEMSFEYWAAQFIQMGYKVAKVDQRESMLAKEMREGSKGIVKRELQCILTSGTLTDGDMLHSDLATFCLAIREEPGNFYNETQLDSSTIVQKLNTKIFGAAFIDTATGELQMLEFEDDSECTKLDTLMSQVRPMEVVMERNNLSTLANKIVKFNSAPNAIFNEVKAGEEFYDCDKTYAEIISSEYFSTEEDWPEVLKSYYDTGKKVGFSAFGGLLYYLKWLKLDKNLISMKNIKEYDFVKSQHSMVLDGITLQNLEIFSNSFDGSDKGTLFKLFNRAITPMGKRMMKKWLMHPLLRKNDIESRLDSVDSLLQDITLREQLEITFSKLPDLERMLARIHSRTIKVKDFEKVITAFETIIELQDSLKNNDLKGDVSKYISSFPEGLVEAVKSWTNAFERQKAINENIIVPQRGFDIEFDKSMDRIQELEDELMEILMTYRKQFKCSNIQYKDSGKEIYTIEIPISATKNVPSNWVQMAANKTYKRYYSDEVRALARSMAEAKEIHKTLEEDLKNRLCQKFDAHYNTIWMPTIQAISNIDCLLAITRTSEYLGAPSCRPTIVDEVDSKTNTQLNGFLKFKSLRHPCFNLGATTAKDFIPNDIELGKEQPRLGLLTGANAAGKSTILRMACIAVIMAQMGCYVPCESAVLTPIDRIMTRLGANDNIMQGKSTFFVELAETKKILDMATNRSLLVVDELGRGGSSSDGFAIAESVLHHVATHIQSLGFFATHYGTLASSFKHHPQVRPLKMSILVDEATRNVTFLYKMLEGQSEGSFGMHVASMCGISKEIIDNAQIAADNLEHTSRLVKERDLAANNLNGEVVSVPGGLQSDFVRIAYGDGLKNTKLGSGEGVLNYDWNIKRNVLKSLFSIIDDLQS

The target in the assay is T1, FLAG-tagged Mgm101 (budding yeast). The experiment in a line: affinity purification with mass spectrometry; Mgm101-FLAG captured on Anti-FLAG M2 Affinity gel; eluate separated by liquid chromatography, peaks with intensity above 400 trypsin digested and identified by MALDI-TOF MS and MS/MS.
As for Mph1 (from UniProt P40562 1-993), the binding entry is given as “binds”.
With B1 the entry was “binds”; with B2, “binds”; with B3, “binds”.
For B4 the value was “binds”.
